Measurements reported in publication PMC11391609.
Results are given in words; binding and its absence hold for the method and conditions named. Binding seen in cells or lysates may run through a third protein. Some binding calls cover weakened binding; strength is not graded here.

Target: T1, Sirtuin 1 (SIRT1) (human (endogenous in RL95-2)), Q96EB6
T1 chain: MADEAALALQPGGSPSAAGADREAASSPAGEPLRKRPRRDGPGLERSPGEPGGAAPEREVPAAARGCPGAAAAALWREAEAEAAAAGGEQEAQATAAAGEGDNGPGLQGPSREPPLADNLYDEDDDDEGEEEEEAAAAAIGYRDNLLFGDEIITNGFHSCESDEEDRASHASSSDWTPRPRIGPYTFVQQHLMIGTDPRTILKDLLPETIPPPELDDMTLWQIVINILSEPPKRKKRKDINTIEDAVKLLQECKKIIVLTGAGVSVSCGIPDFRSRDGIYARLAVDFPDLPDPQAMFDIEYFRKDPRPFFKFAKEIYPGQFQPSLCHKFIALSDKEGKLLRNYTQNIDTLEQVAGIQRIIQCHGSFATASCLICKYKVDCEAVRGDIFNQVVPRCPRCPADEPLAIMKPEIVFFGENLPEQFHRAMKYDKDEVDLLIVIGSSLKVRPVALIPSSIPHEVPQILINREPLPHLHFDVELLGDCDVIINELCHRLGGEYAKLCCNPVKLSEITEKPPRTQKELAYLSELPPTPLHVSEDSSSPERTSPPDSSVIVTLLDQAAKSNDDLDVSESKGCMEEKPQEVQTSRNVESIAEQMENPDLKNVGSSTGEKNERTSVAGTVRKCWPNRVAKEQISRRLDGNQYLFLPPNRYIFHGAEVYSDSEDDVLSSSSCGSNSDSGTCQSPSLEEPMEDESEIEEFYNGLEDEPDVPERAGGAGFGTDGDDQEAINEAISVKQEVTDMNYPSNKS
Test: co-IP; RL95-2 lysate (IP lysis buffer with protease and phosphatase inhibitors) incubated overnight at 4 °C with Protein G magnetic beads and anti-SIRT1 or anti-FOXO3 antibody; washed four times with NETN buffer (20 mM Tris pH 8.0, 100 mM NaCl, 1 mM EDTA, 0.5% NP-40); Western blot
Settings: remark: other sources report otherwise

B1: FOXO3, O43524 1-673 (protein)
chain: MAEAPASPAPLSPLEVELDPEFEPQSRPRSCTWPLQRPELQASPAKPSGETAADSMIPEEEDDEDDEDGGGRAGSAMAIGGGGGSGTLGSGLLLEDSARVLAPGGQDPGSGPATAAGGLSGGTQALLQPQQPLPPPQPGAAGGSGQPRKCSSRRNAWGNLSYADLITRAIESSPDKRLTLSQIYEWMVRCVPYFKDKGDSNSSAGWKNSIRHNLSLHSRFMRVQNEGTGKSSWWIINPDGGKSGKAPRRRAVSMDNSNKYTKSRGRAAKKKAALQTAPESADDSPSQLSKWPGSPTSRSSDELDAWTDFRSRTNSNASTVSGRLSPIMASTELDEVQDDDAPLSPMLYSSSASLSPSVSKPCTVELPRLTDMAGTMNLNDGLTENLMDDLLDNITLPPSQPSPTGGLMQRSSSFPYTTKGSGLGSPTSSFNSTVFGPSSLNSLRQSPMQTIQENKPATFSSMSHYGNQTLQDLLTSDSLSHSDVMMTQSDPLMSQASTAVSAQNSRRNVMLRNDPMMSFAAQPNQGSLVNQNLLHHQHQTQGALGGSRALSNSVSNMGLSESSSLGSAKHQQQSPVSQSMQTLSDSLSGSSLYSTSANLPVMGHEKFPSDLDLDMFNGSLECDMESIIRSELMDADGLDFNFDSLISTQNVVGLNVGNFTGAKQASSQSWVPG
- binding: binds
